Where a name gives a salt, the structure may show the parent alone. At least one compound was matched to its structure with a doubt left.
Biological target: Farnesyl-protein transferase (FPTase)
Assay: In vitro inhibition of ras farnesyl transferase (Ras-CVLS, [3H]FPP)
Type: biochemical, bovine brain or recombinant human
Details: Ras-CVLS 3.5 μM, 0.25 μM [3H]FPP; partially purified bovine or recombinant human enzyme; read-out: IC50 (concentration of the test compound which gives 50% inhibition of FPTase)

## COCC[C@H]1CN(C(=O)c2cccc(C)c2C)CCN1C[C@@H](N)CS [Example 7, 1-[2(R)-Amino-3-mercaptopropyl]-4-(2,3-dimethylbenzoyl)-2(S)-(2-methoxyethyl)piperazine dihydrochloride]
  IC50: 11 nM

From US5736539A, “Inhibitors of farnesyl-protein transferase” (Merck & Co., Inc., priority 1995, dated 1998)
